Assay results as given in paper doi:10.1101/2021.07.27.453980.

Target: T1, Abz-labelled human GM130 C-terminus mimicking peptide (human)
T1 sequence (peptide, Abz on the N-terminus): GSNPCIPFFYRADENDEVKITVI
Test: other fluorescence titration

Substance: human DGRASP65 (GRASP domain of GRASP65) (domain or fragment)
- binding: binds

These are yes or no findings as the source states them, for the method shown. Binding can be weak; no strength is given.
